Experimental data: PubChem BioAssay AID1224830 (NIAID, 2016)
In all, the deposit lists about 18,000 reagents; shown is an unselected part. About 2,900 of all reagents (16%) count as active. 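Calls are made per well; low scores hint the gene aids the LPS response, high scores that it dampens it.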 Repeated entries: four replicate wells of each siRNA pool.

- Screen: 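Regulators of TLR4 signalling towards TNF-alpha in macrophage-like cells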 (primary screen)
- System: human THP-1 monocytic leukaemia cells, TNF dual-luciferase reporter clone, PMA-differentiated to macrophage-like cells
- Reagent: siRNA pool against human genes, 50 nM
- Timing: LPS for 4 h, given about 3 days after siRNA transfection
- Conditions: bacterial LPS (TLR4 ligand), 10 ng/ml
- Read-out: 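Ratio of firefly to renilla light, scaled to the plate median and expressed as a robust z-score per replicate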
- Direction: TNF reporter robust z-score: higher = stronger TNF reporter response to LPS
- Call rule: 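Each well counts as active if its z-score is over 2.8 or under -1.5; controls are left without a call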

gene symbol | TNF reporter robust z-score | Call
COL13A1 | -0.09 | inactive
COL13A1 | -0.63 | inactive
COL13A1 | -0.65 | inactive
COL13A1 | 0.06 | inactive
IFNW1 | 0.11 | inactive
IFNW1 | -0.03 | inactive
IFNW1 | -0.44 | inactive
IFNW1 | 0.21 | inactive
LOC642678 (retired record) | 2.26 | inactive
LOC642678 (retired record) | 0.09 | inactive
LOC642678 (retired record) | -0.73 | inactive
LOC642678 (retired record) | 0.23 | inactive
NIN | 0.69 | inactive
NIN | -0.15 | inactive
NIN | 1.85 | inactive
NIN | 0.99 | inactive
PRDM16 | -1.15 | inactive
PRDM16 | -1.08 | inactive
PRDM16 | -0.81 | inactive
PRDM16 | -0.18 | inactive
PDE12 | 0.33 | inactive
PDE12 | -0.46 | inactive
PDE12 | 0.59 | inactive
PDE12 | -0.36 | inactive

Targets above whose gene name begins with I or i (4):
gene symbol | TNF reporter robust z-score | Call
IFNW1 | 0.11 | inactive
IFNW1 | -0.03 | inactive
IFNW1 | -0.44 | inactive
IFNW1 | 0.21 | inactive

Further entries:
gene symbol | TNF reporter robust z-score | Call
H3C2 | -0.39 | inactive
H3C2 | 0.88 | inactive
H3C2 | 1.08 | inactive
H3C2 | -0.07 | inactive
ITGA9 | -0.15 | inactive
ITGA9 | 0.77 | inactive
ITGA9 | -1.18 | inactive
ITGA9 | 0.32 | inactive
RXYLT1 | -0.02 | inactive
RXYLT1 | 1.15 | inactive
RXYLT1 | 0.49 | inactive
RXYLT1 | 0.84 | inactive
ZNF18 | 1.54 | inactive
ZNF18 | -0.72 | inactive
ZNF18 | 0.56 | inactive
ZNF18 | -0.61 | inactive
ZNF558 | 0.92 | inactive
ZNF558 | 1.58 | inactive
ZNF558 | 0.44 | inactive
ZNF558 | 0.25 | inactive
TEX13A | -1.61 | active
TEX13A | -1.19 | inactive
TEX13A | -1.04 | inactive
TEX13A | -1.42 | inactive
